# Where a name gives a salt, the structure may show the parent alone.
# Target: sigma receptor (guinea pig brain crude membrane fraction)
# Test: Sigma receptor binding assay (3H-DTG)
# Conditions: inhibition of 3H-DTG binding to guinea pig brain crude membrane fraction, 25° C., 1 hour
# Description: Sigma Receptor Binding Assay
# (1) Preparation of Receptor
# The receptor was prepared by the following procedure according to the method of Weber et al. (Proc. Natl. Acad. Sci. 83, 8784-8788, 1986). Ten male guinea pigs (Crj, Hartley, from Charles River Japan, Inc.) (body weight: 234 g to 260 g) were decapitated, bled and died. The brain was immediately taken out, homogenized with 50 mM Tris-HCl (pH 7.4) in an amount ten times larger than the brain using a Teflon homogenizer and was centrifuged at a rate of 50000×g at 4° C. for 20 minutes. The washing procedure was repeated once more under the same conditions, and the resulting crude membrane fraction was subjected to the assay.
# In an assay tube (Daiichi Tube, from DRL) were incubated 0.1 mL of a solution of the test compound, 0.3 mL of a 50 mM Tris-HCl buffer (pH 7.4), 0.1 mL of ^3H-DTG solution (3.2 nM) and 0.5 mL of the receptor (guinea pig brain crude membrane fraction, 5 mg tissue) at 25° C. for 1 hour. After incubation, the mixture was filtrated using a filter paper (GF/B, from Whatman) which had been treated with 0.3% ethyleneimine. The filter paper was transferred to a vial for radioactivity measurement, mixed with 5 mL of a liquid scintillator (Atomlight, from PACKARD), and the radioactivity on the filter was determined by a liquid scintillation counter (Model 1500, from PACKARD) for 2 minutes. […]
structure (smiles),measurement,value
"COc1cc2c(cc1OC)C(=O)C(CC1CCN(Cc3ccccc3)CC1)C2 (stereo not shown) [Control, 1-benzyl-4-[(5,6-dimethoxy-1-indanon)-2-yl]methylpiperidine hydrochloride, reference compound]",IC50,18.7 nM

# Reference: patent publication US7378425B2, “(1-Indanone)-(1,2,3,6-tetrahydropyridine) compounds” (Eisai R & D Management Co., Ltd., priority 2002, dated 2008)
